Test results as given in the supplement of paper PMC10849652.
Some of the results follow.

The chains behind the UniProt entries cited, without tags or fusion partners. Where a name states a change or a piece, a line headed by the entry shows the natural chain unless it says otherwise.
UniProt O96013: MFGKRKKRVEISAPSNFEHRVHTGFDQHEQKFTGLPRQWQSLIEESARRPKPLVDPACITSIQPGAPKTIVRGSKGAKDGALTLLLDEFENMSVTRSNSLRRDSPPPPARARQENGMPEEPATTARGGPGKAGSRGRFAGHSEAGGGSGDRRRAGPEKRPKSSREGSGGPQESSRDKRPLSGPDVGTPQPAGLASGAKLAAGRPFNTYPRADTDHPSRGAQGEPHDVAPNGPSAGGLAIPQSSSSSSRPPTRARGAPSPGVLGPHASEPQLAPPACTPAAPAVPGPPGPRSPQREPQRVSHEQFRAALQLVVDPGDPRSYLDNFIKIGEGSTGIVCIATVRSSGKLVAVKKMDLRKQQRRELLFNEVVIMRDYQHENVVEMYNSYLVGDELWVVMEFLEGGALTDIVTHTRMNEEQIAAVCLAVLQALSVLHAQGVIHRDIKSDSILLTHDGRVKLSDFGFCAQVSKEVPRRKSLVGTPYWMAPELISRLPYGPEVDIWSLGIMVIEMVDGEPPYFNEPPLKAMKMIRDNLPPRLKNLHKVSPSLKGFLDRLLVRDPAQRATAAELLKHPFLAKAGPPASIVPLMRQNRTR
UniProt P55809: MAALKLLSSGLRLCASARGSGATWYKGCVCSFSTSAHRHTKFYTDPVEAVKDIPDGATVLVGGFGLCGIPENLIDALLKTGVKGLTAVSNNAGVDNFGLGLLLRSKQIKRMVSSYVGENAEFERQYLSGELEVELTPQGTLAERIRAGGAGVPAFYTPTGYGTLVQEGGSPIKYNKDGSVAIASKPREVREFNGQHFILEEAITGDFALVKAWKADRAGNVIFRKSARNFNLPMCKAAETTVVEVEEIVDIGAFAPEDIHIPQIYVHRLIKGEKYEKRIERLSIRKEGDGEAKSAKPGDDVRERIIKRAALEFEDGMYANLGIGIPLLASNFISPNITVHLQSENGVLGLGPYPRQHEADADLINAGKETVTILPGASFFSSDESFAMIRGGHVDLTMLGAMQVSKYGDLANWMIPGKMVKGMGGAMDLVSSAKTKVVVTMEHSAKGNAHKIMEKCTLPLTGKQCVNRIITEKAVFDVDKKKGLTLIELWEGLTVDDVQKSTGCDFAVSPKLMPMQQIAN
UniProt P52948: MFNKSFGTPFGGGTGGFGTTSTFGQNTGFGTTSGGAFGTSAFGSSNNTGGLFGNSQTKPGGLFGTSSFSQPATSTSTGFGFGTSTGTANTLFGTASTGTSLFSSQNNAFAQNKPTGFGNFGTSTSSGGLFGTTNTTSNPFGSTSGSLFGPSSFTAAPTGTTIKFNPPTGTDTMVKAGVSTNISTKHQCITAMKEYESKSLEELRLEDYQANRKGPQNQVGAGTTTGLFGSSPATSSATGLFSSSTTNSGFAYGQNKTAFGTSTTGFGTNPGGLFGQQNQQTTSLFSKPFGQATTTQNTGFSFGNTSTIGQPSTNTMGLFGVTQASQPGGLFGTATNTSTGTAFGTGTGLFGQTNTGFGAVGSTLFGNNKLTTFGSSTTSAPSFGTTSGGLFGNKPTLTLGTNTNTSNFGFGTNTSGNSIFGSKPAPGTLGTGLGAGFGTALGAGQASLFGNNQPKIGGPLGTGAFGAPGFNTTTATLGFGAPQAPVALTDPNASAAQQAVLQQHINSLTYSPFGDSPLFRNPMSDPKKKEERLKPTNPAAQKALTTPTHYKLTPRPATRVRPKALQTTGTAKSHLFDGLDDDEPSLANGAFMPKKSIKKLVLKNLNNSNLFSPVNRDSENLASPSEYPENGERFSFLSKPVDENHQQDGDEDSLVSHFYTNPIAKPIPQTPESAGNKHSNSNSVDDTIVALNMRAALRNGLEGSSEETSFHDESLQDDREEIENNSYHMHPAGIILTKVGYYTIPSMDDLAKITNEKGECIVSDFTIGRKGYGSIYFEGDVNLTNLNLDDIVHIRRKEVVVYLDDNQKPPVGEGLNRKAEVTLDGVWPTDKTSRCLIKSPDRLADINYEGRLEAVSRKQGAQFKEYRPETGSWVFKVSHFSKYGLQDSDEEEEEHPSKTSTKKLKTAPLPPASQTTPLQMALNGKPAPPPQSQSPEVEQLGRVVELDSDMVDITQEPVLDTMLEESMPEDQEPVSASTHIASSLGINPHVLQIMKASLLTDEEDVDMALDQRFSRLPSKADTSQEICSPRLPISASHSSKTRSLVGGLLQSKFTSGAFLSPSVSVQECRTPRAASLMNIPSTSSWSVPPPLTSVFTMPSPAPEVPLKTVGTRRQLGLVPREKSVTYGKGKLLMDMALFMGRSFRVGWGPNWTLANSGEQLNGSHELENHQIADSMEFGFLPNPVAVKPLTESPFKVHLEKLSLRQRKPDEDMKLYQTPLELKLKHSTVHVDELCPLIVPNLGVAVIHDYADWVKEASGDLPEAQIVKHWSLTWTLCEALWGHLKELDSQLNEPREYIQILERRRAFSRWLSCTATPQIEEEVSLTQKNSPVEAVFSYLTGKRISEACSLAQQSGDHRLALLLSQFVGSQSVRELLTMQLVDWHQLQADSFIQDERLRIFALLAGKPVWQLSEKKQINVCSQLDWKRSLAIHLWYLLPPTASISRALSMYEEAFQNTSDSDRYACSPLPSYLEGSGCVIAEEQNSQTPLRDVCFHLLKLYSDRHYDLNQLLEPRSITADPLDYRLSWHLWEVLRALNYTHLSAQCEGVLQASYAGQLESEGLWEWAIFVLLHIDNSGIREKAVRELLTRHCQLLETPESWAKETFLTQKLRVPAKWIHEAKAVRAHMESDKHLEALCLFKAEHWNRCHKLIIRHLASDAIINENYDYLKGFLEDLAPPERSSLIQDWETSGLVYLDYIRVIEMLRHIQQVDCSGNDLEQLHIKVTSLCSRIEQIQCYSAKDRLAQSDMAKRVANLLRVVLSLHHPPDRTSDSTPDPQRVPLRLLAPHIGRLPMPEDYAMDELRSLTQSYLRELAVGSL
UniProt Q96GU1: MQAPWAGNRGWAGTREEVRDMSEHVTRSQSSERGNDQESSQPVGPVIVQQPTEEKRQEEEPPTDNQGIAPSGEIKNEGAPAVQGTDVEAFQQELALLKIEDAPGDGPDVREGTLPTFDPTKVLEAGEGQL
UniProt P35658: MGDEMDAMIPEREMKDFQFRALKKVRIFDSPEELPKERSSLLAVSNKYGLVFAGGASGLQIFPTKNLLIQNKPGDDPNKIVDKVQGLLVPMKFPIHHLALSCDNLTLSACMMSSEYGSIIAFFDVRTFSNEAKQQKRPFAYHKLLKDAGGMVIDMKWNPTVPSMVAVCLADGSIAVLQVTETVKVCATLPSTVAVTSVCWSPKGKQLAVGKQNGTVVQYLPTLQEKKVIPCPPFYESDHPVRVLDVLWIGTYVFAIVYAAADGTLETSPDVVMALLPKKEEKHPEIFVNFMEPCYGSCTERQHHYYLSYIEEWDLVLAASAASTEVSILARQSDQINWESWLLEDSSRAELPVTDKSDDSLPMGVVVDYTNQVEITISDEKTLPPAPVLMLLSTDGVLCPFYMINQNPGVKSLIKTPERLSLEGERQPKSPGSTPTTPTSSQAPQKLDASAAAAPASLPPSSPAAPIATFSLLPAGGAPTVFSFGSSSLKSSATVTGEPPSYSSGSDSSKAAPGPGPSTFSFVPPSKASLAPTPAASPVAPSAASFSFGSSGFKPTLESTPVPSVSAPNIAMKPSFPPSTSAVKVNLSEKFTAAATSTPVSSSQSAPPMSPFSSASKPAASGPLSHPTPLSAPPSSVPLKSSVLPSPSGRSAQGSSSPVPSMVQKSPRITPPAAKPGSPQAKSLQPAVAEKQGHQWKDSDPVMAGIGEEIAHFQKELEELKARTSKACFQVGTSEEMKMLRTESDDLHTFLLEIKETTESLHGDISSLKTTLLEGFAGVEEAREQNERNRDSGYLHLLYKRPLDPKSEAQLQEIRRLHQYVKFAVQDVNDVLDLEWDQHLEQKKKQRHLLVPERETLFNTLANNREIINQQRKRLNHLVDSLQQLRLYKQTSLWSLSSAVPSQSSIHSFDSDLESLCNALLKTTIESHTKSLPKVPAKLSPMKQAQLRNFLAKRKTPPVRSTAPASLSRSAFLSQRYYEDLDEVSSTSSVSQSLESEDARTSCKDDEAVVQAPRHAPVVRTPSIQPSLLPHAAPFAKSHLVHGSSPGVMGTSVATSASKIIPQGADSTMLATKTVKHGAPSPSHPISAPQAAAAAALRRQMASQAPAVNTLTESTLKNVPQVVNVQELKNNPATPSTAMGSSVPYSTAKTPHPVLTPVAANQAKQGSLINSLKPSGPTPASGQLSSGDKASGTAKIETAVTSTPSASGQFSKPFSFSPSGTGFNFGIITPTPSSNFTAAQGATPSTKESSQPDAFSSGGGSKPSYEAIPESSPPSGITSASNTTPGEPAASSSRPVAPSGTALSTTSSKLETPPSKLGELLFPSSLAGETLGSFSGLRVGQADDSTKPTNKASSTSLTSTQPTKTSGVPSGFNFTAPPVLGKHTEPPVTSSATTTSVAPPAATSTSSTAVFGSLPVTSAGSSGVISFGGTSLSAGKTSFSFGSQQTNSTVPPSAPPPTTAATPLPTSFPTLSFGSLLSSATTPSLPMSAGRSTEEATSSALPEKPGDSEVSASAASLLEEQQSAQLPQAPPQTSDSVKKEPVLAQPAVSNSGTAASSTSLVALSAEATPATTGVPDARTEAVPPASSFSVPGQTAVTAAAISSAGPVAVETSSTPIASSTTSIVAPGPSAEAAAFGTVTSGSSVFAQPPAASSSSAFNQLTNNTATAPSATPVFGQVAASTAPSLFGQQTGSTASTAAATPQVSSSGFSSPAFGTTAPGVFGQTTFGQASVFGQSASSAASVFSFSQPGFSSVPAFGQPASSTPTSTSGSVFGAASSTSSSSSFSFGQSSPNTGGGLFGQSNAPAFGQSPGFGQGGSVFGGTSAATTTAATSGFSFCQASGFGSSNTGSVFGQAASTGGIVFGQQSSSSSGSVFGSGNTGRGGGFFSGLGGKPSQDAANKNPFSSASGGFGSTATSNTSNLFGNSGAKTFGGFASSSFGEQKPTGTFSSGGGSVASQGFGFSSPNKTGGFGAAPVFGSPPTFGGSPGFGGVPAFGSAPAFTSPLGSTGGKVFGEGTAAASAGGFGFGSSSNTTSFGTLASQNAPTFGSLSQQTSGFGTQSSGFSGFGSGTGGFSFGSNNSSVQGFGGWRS
UniProt Q9BVL2: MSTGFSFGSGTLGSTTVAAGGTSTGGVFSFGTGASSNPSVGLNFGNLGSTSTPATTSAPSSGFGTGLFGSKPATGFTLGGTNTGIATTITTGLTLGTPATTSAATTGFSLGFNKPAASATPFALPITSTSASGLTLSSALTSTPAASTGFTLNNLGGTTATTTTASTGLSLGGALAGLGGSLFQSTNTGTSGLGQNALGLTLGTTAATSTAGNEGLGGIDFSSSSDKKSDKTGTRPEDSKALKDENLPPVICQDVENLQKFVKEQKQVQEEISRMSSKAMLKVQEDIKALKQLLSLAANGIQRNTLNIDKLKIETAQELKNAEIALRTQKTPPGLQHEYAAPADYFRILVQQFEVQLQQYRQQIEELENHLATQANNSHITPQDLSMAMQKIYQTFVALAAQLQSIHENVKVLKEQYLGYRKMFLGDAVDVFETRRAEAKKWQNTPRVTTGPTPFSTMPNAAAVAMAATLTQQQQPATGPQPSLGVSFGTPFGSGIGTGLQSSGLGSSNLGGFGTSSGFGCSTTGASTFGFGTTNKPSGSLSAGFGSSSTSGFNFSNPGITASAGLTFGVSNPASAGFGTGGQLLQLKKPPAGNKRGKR
UniProt Q9NRP0: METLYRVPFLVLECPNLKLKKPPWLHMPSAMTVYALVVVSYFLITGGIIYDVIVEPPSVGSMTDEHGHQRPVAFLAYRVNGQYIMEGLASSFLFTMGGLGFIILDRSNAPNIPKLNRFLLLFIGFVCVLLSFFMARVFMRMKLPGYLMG
UniProt Q9BW27: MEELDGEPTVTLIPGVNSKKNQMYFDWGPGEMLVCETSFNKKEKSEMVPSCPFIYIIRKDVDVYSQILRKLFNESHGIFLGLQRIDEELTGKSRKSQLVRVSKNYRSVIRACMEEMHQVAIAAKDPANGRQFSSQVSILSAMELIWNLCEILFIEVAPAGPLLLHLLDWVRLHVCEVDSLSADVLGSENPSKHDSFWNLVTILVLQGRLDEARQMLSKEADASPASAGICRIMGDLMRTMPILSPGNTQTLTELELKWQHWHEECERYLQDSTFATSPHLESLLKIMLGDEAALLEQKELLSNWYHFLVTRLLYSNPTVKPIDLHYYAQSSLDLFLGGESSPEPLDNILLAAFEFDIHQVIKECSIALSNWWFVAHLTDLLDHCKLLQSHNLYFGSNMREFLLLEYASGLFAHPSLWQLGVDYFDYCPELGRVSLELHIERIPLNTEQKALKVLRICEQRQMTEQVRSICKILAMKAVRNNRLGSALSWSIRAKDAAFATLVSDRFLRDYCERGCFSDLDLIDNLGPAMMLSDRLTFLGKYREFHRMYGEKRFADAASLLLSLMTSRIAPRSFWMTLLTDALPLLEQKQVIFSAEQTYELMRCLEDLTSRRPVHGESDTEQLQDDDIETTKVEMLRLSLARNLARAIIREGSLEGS

Assays:
Assay in all cases: log2 fold change, soluble protein after heating vs DMSO (PISA); higher = thermal stabilisation; K562 lysate, 10 uM; active = over 0.2 and 3.5 SD of the protein, either way, in both replicates (recomputed)
nilotinib = compound: Cc1cn(-c2cc(NC(=O)c3ccc(C)c(Nc4nccc(-c5cccnc5)n4)c3)cc(C(F)(F)F)c2)cn1 [nilotinib]
Method in brief: (§1)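 K562 pellets were dounce-homogenised in PBS pH 7.4 with 1 mM MgCl2, and the crude extract at 1 mg/mL protein was treated with 10 μM compound for 30 min. Aliquots were heated for 3 min across 48°C-58°C, pooled, and brought to 0.5% NP-40 at 4°C; soluble protein was the supernatant after 21,000xg for 90 min. Soluble protein was quantified by TMTpro 16plex LC-MS/MS with channel sums equalised, and reported as log2 fold change in thermal stability against DMSO controls, with values from duplicates.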

[1] = compound: Cc1nc(Nc2n[nH]c3c2CN(C(=O)N[C@H](CN(C)C)c2ccccc2)C3(C)C)c2sccc2n1
Method in brief: as §1

dasatinib = compound: Cc1nc(Nc2ncc(C(=O)Nc3c(C)cccc3Cl)s2)cc(N2CCN(CCO)CC2)n1 [dasatinib]
Method in brief: as §1

[2] = compound: Cc1ncc(-c2ccnc(Nc3ccc(S(C)(=O)=O)cc3)n2)n1C(C)C
Method in brief: as §1

[3] = compound: Cn1cc(-c2ccc3c(c2)CCN3C(=O)Cc2cccc(C(F)(F)F)c2)c2c(N)ncnc21
Method in brief: as §1

quisinostat = compound: Cn1cc(CNCC2CCN(c3ncc(C(=O)NO)cn3)CC2)c2ccccc21 [quisinostat]
Method in brief: as §1

tipifarnib = compound: Cn1cncc1[C@@](N)(c1ccc(Cl)cc1)c1ccc2c(c1)c(-c1cccc(Cl)c1)cc(=O)n2C [tipifarnib]
Method in brief: as §1

[4] = compound: NC(=O)Nc1cc(-c2cccc(F)c2)sc1C(=O)N[C@H]1CCCNC1
Method in brief: as §1

[5] = compound: NC(=O)c1cnc(N[C@@H]2CCCC[C@@H]2N)nc1Nc1cccc(-n2nccn2)c1
Method in brief: as §1

[6] = compound: NC1(c2ccc(-c3nc4ccn5c(=O)[nH]nc5c4cc3-c3ccccc3)cc2)CCC1
Method in brief: as §1

[7] = compound: NCC(=O)Nc1ccc(-n2nc(C(F)(F)F)cc2-c2ccc3c(ccc4ccccc43)c2)cc1
Method in brief: as §1

vorinostat = compound: O=C(CCCCCCC(=O)Nc1ccccc1)NO [vorinostat]
Method in brief: as §1

silmitasertib = compound: O=C(O)c1ccc2c(c1)nc(Nc1cccc(Cl)c1)c1ccncc12 [silmitasertib]
Method in brief: as §1

[8] = compound: O=C1NC(=O)C(c2cnc3ccccn23)=C1c1cn2c3c(cc(F)cc13)CN(C(=O)N1CCCCC1)CC2
Method in brief: as §1

entospletinib = compound: c1cn2cc(-c3ccc4cn[nH]c4c3)nc(Nc3ccc(N4CCOCC4)cc3)c2n1 [entospletinib]
Method in brief: as §1

Target | log2 fold change (nilotinib) | log2 fold change [1] | log2 fold change (dasatinib) | log2 fold change [2] | log2 fold change [3] | log2 fold change (quisinostat) | log2 fold change (tipifarnib) | log2 fold change [4] | log2 fold change [5] | log2 fold change [6] | log2 fold change [7] | log2 fold change (vorinostat) | log2 fold change (silmitasertib) | log2 fold change [8] | log2 fold change (entospletinib)
OSTM1 (UniProt Q86WC4) | inactive: -0.029 | inactive: 0.001 | inactive: 0.055 | inactive: -0.027 | inactive: 0.025 | inactive: 0.083 | inactive: 0.033 | inactive: -0.017 | inactive: -0.002 | inactive: -0.005 | inactive: -0.09 | inactive: 0.175 | inactive: -0.015 | inactive: -0.032 | inactive: -0.016
NUP37 (UniProt Q8NFH4) | inactive: -0.003 | inactive: -0.009 | inactive: 0.002 | inactive: -0.035 | inactive: 0.017 | inactive: 0.037 | inactive: -0.001 | inactive: -0.004 | inactive: -0.007 | inactive: -0.004 | inactive: 0.015 | inactive: 0.004 | inactive: 0.011 | inactive: -0.064 | inactive: -0.027
PAK4 (UniProt O96013) | inactive: -0.015 | active: 0.71 | inactive: 0.141 | inactive: 0.264 | inactive: -0.081 | inactive: -0.269 | inactive: -0.016 | active: 0.9 | inactive: 0.473 | inactive: 0.257 | inactive: -0.003 | inactive: -0.458 | inactive: -0.038 | inactive: 0.028 | inactive: 0.05
OXCT1 (UniProt P55809) | inactive: 0.018 | inactive: 0 | inactive: -0.022 | inactive: 0.029 | inactive: 0.001 | inactive: 0.021 | inactive: 0.033 | inactive: 0.014 | inactive: -0.008 | inactive: -0.004 | inactive: 0.001 | inactive: 0.103 | inactive: -0.035 | inactive: 0.022 | inactive: -0.009
PANX1 (UniProt Q96RD7) | inactive: 0.099 | inactive: 0.011 | inactive: 0.04 | inactive: -0.04 | inactive: 0.006 | inactive: 0.053 | inactive: -0.067 | inactive: -0.009 | inactive: -0.007 | inactive: -0.031 | inactive: -0.027 | inactive: 0.068 | inactive: -0.025 | inactive: -0.075 | inactive: 0.017
PARL (UniProt Q9H300) | inactive: 0.053 | inactive: -0.018 | inactive: 0.041 | inactive: 0.043 | inactive: -0.012 | inactive: -0.022 | inactive: -0.042 | inactive: 0.038 | inactive: -0.003 | inactive: -0.007 | inactive: -0.065 | inactive: 0.024 | inactive: -0.012 | inactive: -0.032 | inactive: 0.005
NUP98 (UniProt P52948) | inactive: -0.041 | inactive: -0.017 | inactive: -0.053 | inactive: -0.008 | inactive: 0.031 | inactive: -0.049 | inactive: -0.12 | inactive: 0.055 | inactive: -0.002 | inactive: 0.003 | inactive: 0.021 | active: -0.231 | inactive: 0.001 | inactive: 0.001 | inactive: -0.012
PARD3 (UniProt Q8TEW0) | inactive: -0.114 | inactive: -0.109 | inactive: 0.021 | inactive: -0.031 | inactive: 0.024 | inactive: -0.002 | inactive: 0.121 | inactive: 0.029 | inactive: 0.199 | inactive: 0.105 | inactive: -0.071 | inactive: -0.314 | inactive: -0.118 | inactive: -0.081 | inactive: -0.003
NXF1 (UniProt Q9UBU9) | inactive: 0.014 | inactive: -0.022 | inactive: -0.075 | inactive: -0.002 | inactive: 0.006 | inactive: -0.016 | inactive: -0.003 | inactive: 0.031 | inactive: 0 | inactive: 0.075 | inactive: 0.009 | inactive: -0.09 | inactive: -0.048 | inactive: 0.026 | inactive: 0.036
NUP160 (UniProt Q12769) | inactive: 0.014 | inactive: -0.025 | inactive: -0.092 | inactive: -0.032 | inactive: 0.021 | inactive: -0.032 | inactive: -0.031 | inactive: 0.009 | inactive: 0.002 | inactive: -0.018 | inactive: -0.036 | active: -0.291 | inactive: 0.082 | inactive: 0.022 | inactive: 0.009
PAGE5 (UniProt Q96GU1) | inactive: -0.003 | inactive: 0.045 | inactive: 0.017 | inactive: 0.318 | inactive: -0.03 | inactive: 0.002 | inactive: 0.021 | inactive: -0.012 | inactive: -0.035 | inactive: 0.012 | inactive: -0.076 | inactive: 0.239 | inactive: -0.029 | inactive: 0.056 | inactive: 0.061
OGFOD3 (UniProt Q6PK18) | inactive: -0.031 | inactive: -0.114 | inactive: -0.041 | inactive: -0.009 | inactive: 0.118 | inactive: 0.008 | inactive: -0.014 | inactive: 0.072 | inactive: 0.011 | inactive: 0.096 | inactive: 0.01 | inactive: -0.083 | inactive: 0.032 | inactive: -0.045 | inactive: -0.044
NUP214 (UniProt P35658) | inactive: -0.011 | inactive: 0 | inactive: -0.067 | inactive: -0.011 | inactive: -0.007 | inactive: -0.057 | inactive: -0.107 | inactive: 0.062 | inactive: 0.003 | inactive: 0.015 | inactive: 0.029 | inactive: -0.139 | inactive: -0.006 | inactive: -0.007 | inactive: -0.018
OCIAD1 (UniProt Q9NX40) | inactive: -0.003 | inactive: 0.011 | inactive: 0.006 | inactive: -0.003 | inactive: -0.005 | inactive: -0.002 | inactive: 0.005 | inactive: -0.017 | inactive: -0.002 | inactive: -0.016 | inactive: -0.033 | inactive: 0.139 | inactive: -0.016 | inactive: 0.005 | inactive: -0.006
NUP58 (UniProt Q9BVL2) | inactive: 0.008 | inactive: 0.065 | inactive: -0.001 | inactive: -0.012 | inactive: 0.011 | inactive: -0.007 | inactive: -0.068 | inactive: 0.029 | inactive: -0.008 | inactive: -0.003 | inactive: -0.057 | inactive: 0.013 | inactive: -0.008 | inactive: -0.036 | inactive: -0.051
OSTC isoform 2 (UniProt Q9NRP0) | inactive: -0.003 | inactive: 0.015 | inactive: -0.072 | inactive: 0.031 | inactive: -0.05 | inactive: -0.106 | inactive: -0.037 | inactive: 0.045 | inactive: 0.023 | inactive: 0.044 | inactive: -0.013 | inactive: -0.045 | inactive: 0.069 | inactive: 0.063 | inactive: 0.023
OGFOD1 (UniProt Q8N543) | inactive: -0.027 | inactive: 0.007 | inactive: 0.008 | inactive: -0.035 | inactive: 0.018 | inactive: 0.041 | inactive: 0.021 | inactive: 0.028 | inactive: 0.008 | inactive: 0.07 | inactive: -0.015 | inactive: -0.02 | inactive: 0.039 | inactive: -0.004 | inactive: 0.002
OSBP (UniProt P22059) | inactive: -0.073 | inactive: 0.005 | active: -0.221 | inactive: -0.015 | inactive: -0.011 | inactive: 0 | inactive: 0.042 | inactive: 0.012 | inactive: 0.031 | inactive: 0.04 | inactive: 0.041 | inactive: 0.108 | inactive: -0.121 | inactive: -0.015 | inactive: -0.1
NUP85 (UniProt Q9BW27) | inactive: -0.003 | inactive: -0.02 | inactive: -0.12 | inactive: -0.002 | inactive: 0.019 | inactive: 0.026 | inactive: -0.011 | inactive: 0 | inactive: 0.023 | inactive: -0.004 | inactive: -0.03 | inactive: -0.075 | inactive: 0.019 | inactive: -0.006 | inactive: 0.014

Shown as comma-separated lines: part of the list above
Target,log2 fold change (nilotinib),log2 fold change [1],log2 fold change (dasatinib),log2 fold change [2],log2 fold change [3],log2 fold change (quisinostat),log2 fold change (tipifarnib),log2 fold change [4],log2 fold change [5],log2 fold change [6],log2 fold change [7],log2 fold change (vorinostat),log2 fold change (silmitasertib),log2 fold change [8],log2 fold change (entospletinib)
NUP58 (UniProt Q9BVL2),inactive: 0.008,inactive: 0.065,inactive: -0.001,inactive: -0.012,inactive: 0.011,inactive: -0.007,inactive: -0.068,inactive: 0.029,inactive: -0.008,inactive: -0.003,inactive: -0.057,inactive: 0.013,inactive: -0.008,inactive: -0.036,inactive: -0.051
OSTC isoform 2 (UniProt Q9NRP0),inactive: -0.003,inactive: 0.015,inactive: -0.072,inactive: 0.031,inactive: -0.05,inactive: -0.106,inactive: -0.037,inactive: 0.045,inactive: 0.023,inactive: 0.044,inactive: -0.013,inactive: -0.045,inactive: 0.069,inactive: 0.063,inactive: 0.023
